According to PubChem BioAssay AID2685 (National Center for Advancing Translational Sciences (NCATS), 2010):
The other results are listed elsewhere or left out. These are further read-outs of the screen, such as a control signal, another cell line or another target. No call is given for them. Compounds called inactive in the main read-out are mostly missing here. Potencies come from curve fits of mixed quality, noted in brackets.

Assay: qHTS Assay for Lipid Storage Modulators in Drosophila S3 Cells;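 as to cell number change: cells counted by Cell Tracker Red CMTPX staining in the red channel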
Details: BODIPY lipid droplet fluorescence, 18-24 h; for cell number change: measured here: cell count max response, cells fed with added oleic acid
Outline: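 Drosophila S3 cells loaded with oleic acid (400 uM, as added) and compounds at several concentrations; lipid droplets imaged by 488-nm laser-scanning cytometry, 500–530 nm intensity and object ratio to cell channel. Percent activity normalized to 20 uM Triacsin C.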

[1] = measured here: cell number channel AC50, cells fed with added oleic acid
[2] = measured here: lipid fluorescence (Fed channel) AC50, cells fed with added oleic acid

SMILES | cell number change [%] | AC50 [1] | AC50 [2]
CN(CC(=O)Nc1cccc(F)c1)C(=O)C1CC(=O)N(CCc2ccccc2)C1 (configuration not stated) | 30.5 | 7.31 µM [rising, partial curve] | 
Cc1cccc(NC(=O)COc2cccc3c2CCN(Cc2ccccc2)C3=O)c1C | 1.78 |  | 0.0517 µM [rising, full curve, poor fit]
Cc1ccc(S(=O)(=O)NCCC(=O)O)cc1 | -57.4 | 29.1 µM [falling, single point] | 
Cc1ccccc1C(=O)NNC(=O)CSc1nc(-c2ccccc2)cc(=O)[nH]1 | -43.8 | 18.4 µM [falling, single point] | 
CCCCn1c(SCC(=O)N2CCC(C)CC2)nc2cc(S(N)(=O)=O)ccc21 | -18.6 |  | 
NC(=O)CSc1nnc(-c2cnccn2)n1-c1ccccc1 | 10.8 |  | 1.46 µM [falling, partial curve]
O=C(O)/C=C/C(=O)Nc1ccc(F)cc1F | -7.34 |  | 8.2 µM [falling, partial curve, poor fit]
CCN(CC)c1ccc(/C=N/N(c2ccccc2)c2ccccc2)c(O)c1 | -45.5 | 18.4 µM [falling, single point] | 20.6 µM [falling, partial curve]
COCCNC(=O)C(c1ccc(C)o1)N(Cc1ccc(OC)cc1)C(=O)Cn1nnc2ccccc21 (configuration not stated) | 32.5 | 14.6 µM [rising, single point] | 0.00517 µM [rising, full curve, poor fit]
CC1CN(C(=O)Cn2c(C(F)(F)F)nc3ccccc32)CC(C)O1 (configuration not stated) | 10.7 |  | 
Cc1cc(OCC(=O)Nc2ccncc2)c(C)cc1Br | -30.5 | 0.0058 µM [falling, full curve, poor fit] | 0.164 µM [falling, full curve]
COc1ccc(OCC(=O)N2CCC3(CC2)CC(=O)c2ccccc2O3)cc1 | -12.9 |  | 8.2 µM [falling, partial curve]
O=C(NCc1ccccn1)Nc1cccc(F)c1 | -20 |  | 0.794 µM [falling, full curve, poor fit]
COc1ccc(CNC(=O)/C=C/c2ccc(OCCCF)cc2)cc1 | 29.9 |  | 
Cc1c(C(=O)c2ccc(Cl)cc2Cl)cnc2cc3c(cc12)OCO3 | -32.6 | 32.6 µM [falling, single point] | 29.1 µM [falling, single point]
COc1ccc(C(=O)COC(=O)Cn2nnc3ccccc32)cc1Br | -67.6 | 32.6 µM [falling, partial curve, poor fit] | 20.6 µM [falling, partial curve]
O=C1COc2ccc(C(=O)COC(=O)CNC(=O)c3ccccc3)cc2N1 | 57.4 | 29.1 µM [rising, single point] | 4.11 µM [falling, single point]
CN(c1ccc(OCC(=O)OCC(=O)Nc2ccc(Br)cc2)cc1)S(=O)(=O)c1cccs1 | 4.07 |  | 29.1 µM [falling, single point]
O=C(NCCN1CCOCC1)c1cc(-c2cccc(O)c2)on1 |  |  | 0.58 µM [rising, partial curve]
COc1ccc(S(=O)CC(=O)Nc2ccc(Cl)cc2Cl)cc1 (configuration not stated) | -1.85 |  | 6.51 µM [falling, single point]

SMILES | cell number change [%] | AC50 [1] | AC50 [2]
CCOc1ccccc1NC(=O)CCS(=O)(=O)c1ccc2c(c1)CCN2C(C)=O | 17.9 |  | 
O=[N+]([O-])c1ccc(N2CCCCCC2)c([N+](=O)[O-])c1 | 40.1 |  | 
CCSc1nnc(NC(=O)CSc2nc(CC)nc3c2c(=O)n(C)c(=O)n3C)s1 |  | 2.59 µM [rising, partial curve] | 
CC1(C)Cc2cccc(OCC(=O)NCc3cccs3)c2O1 | -11.4 |  | 29.1 µM [falling, single point]
O=C(Cn1c(=O)oc2cc(S(=O)(=O)N3CCCC3)ccc21)Nc1ccccc1Br | -42.4 |  | 10.3 µM [falling, partial curve]
COc1ccc(-c2nn(-c3ccccc3)cc2/C=N/n2cnnc2)cc1OC |  | 2.31 µM [rising, partial curve] | 
COc1ccc(C(=O)NCc2nnc(SCC(=O)Nc3cc(C)cc(C)c3)o2)cc1OC | 62.9 | 29.1 µM [rising, partial curve, poor fit] | 20.6 µM [rising, single point]
COc1ccccc1NC(=O)C(C)OC(=O)Cc1ccsc1 (configuration not stated) | -25 |  | 6.51 µM [falling, single point]
O=C(Cc1ccccc1[N+](=O)[O-])Nc1cccc(S(=O)(=O)NC2=NCCCCC2)c1 | -46.2 | 29.1 µM [falling, single point] | 
C/C(=N\Nc1ccc([N+](=O)[O-])cc1)c1ccc(-n2nncc2C)cc1 | 40 | 29.1 µM [rising, single point] | 1.46 µM [rising, partial curve]
COc1ccc(Nc2nc(-c3ccccc3)nc3ccccc23)cc1S(=O)(=O)N1CCOCC1 |  |  | 29.1 µM [falling, single point]
c1ccc(-c2noc(-c3cccc4ccccc34)n2)nc1 | 1.96 |  | 
Cc1ccccc1N=Nc1c(N)n[nH]c1N | 27.7 |  | 0.231 µM [rising, full curve, poor fit]
CCOc1ccccc1NC(=O)Nc1ccc(Br)cc1C | 2.4 |  | 
COc1ccc(NS(=O)(=O)c2ccc(N3CCOCC3)c(N)c2)cc1 | -36.1 | 9.2 µM [falling, partial curve] | 1.84 µM [falling, full curve]
O=C(Nc1nc2ccccc2n1CCN1CCCCC1)c1ccc(Cl)cc1 |  |  | 0.146 µM [rising, full curve, poor fit]
Cc1cccn2c(=O)c3cc(C(=O)NC4CCCC4)c(=N)n(Cc4ccc(F)cc4)c3nc12 | 20.2 |  | 9.2 µM [falling, partial curve]
CCCc1c(O)nc(SC2CC(=O)N(c3cc(OC)ccc3OC)C2=O)[nH]c1=O (configuration not stated) | 3.24 | 0.651 µM [falling, full curve] | 0.0164 µM [falling, full curve]
CC(C)(C)OC(=O)NCCCC[C@H](NC(=O)c1nc[nH]c1C(=O)NCC(=O)OCc1ccccc1)C(=O)OC(C)(C)C | -5.09 |  | 18.4 µM [falling, single point]
Cc1onc(-c2ccccc2Cl)c1C(=O)N/N=C(\N)COc1ccc(Cl)cc1 |  |  | 1.16 µM [rising, full curve, poor fit]

3 structures already listed, ordered by molar mass, high to low.
SMILES | cell number change [%] | AC50 [1] | AC50 [2]
CCSc1nnc(NC(=O)CSc2nc(CC)nc3c2c(=O)n(C)c(=O)n3C)s1 |  | 2.59 µM [rising, partial curve] | 
COc1ccccc1NC(=O)C(C)OC(=O)Cc1ccsc1 (configuration not stated) | -25 |  | 6.51 µM [falling, single point]
c1ccc(-c2noc(-c3cccc4ccccc34)n2)nc1 | 1.96 |  | 

Continued:

SMILES | cell number change [%] | AC50 [1] | AC50 [2]
Cc1ccc(OC(C)C(=O)Nc2ccncc2)cc1C (configuration not stated) | -12.6 |  | 
Cc1ccc(NC(=O)Cn2nc(-c3ccco3)ccc2=O)cc1Cl | 23.1 |  | 3.66 µM [falling, full curve, poor fit]
O=C(CSc1nnc(CNC(=O)c2cccs2)o1)Nc1ccccc1 | -29.4 |  | 
CSc1ccc(S(=O)(=O)NCC(=O)OCC(=O)NC2(C#N)CCCCC2)cc1[N+](=O)[O-] | -11 |  | 
O=[N+]([O-])c1ccccc1CNc1ccc(F)c(Cl)c1 | -3.65 |  | 0.461 µM [falling, full curve, poor fit]
CCCn1c(C2CCCN2c2nc(-c3ccc(C)cc3)cs2)nc2cc(Cl)c(N3CCCCC3)cc21 (configuration not stated) | 29.1 |  | 18.4 µM [rising, partial curve]
COC(=O)N/N=C/c1cn(Cc2ccc(F)cc2)c2ccccc12 | 4.59 |  | 20.6 µM [rising, single point]
CCOC(=O)c1c(NC(=O)COC(=O)c2nccnc2N)sc2c1CCC2 | -62.6 | 23.1 µM [falling, partial curve] | 18.4 µM [falling, single point]
CC(C)OCc1c(C(=O)OC/C(O)=C(\C#N)c2nc3ccccc3[nH]2)oc2ccccc12 | 7.96 |  | 
CCCSc1nc2c(c(=O)n1CC)SC(C)C2 (configuration not stated) | -4.7 |  | 
Cc1[nH]c2ccc(OC(=O)N3CCOCC3)cc2c1C(=O)OC(C)C | 1.86 |  | 2.31 µM [rising, partial curve, poor fit]
CCOCCCNS(=O)(=O)c1ccc(NC(=O)c2ccc([N+](=O)[O-])cc2Cl)cc1 | 4.71 |  | 0.651 µM [falling, single point]
CCSC1=N/C(=C\C=C2/Oc3ccccc3N2CC)C(=O)S1 | -17.7 |  | 29.1 µM [falling, single point]
Cc1nnc(SCC(=O)N(C)C2CCS(=O)(=O)C2)n1Cc1ccccc1 (configuration not stated) | 8.77 |  | 
CC(=O)Nc1ccc(NC(=O)C(C)OC(=O)CSCc2cccc(Cl)c2)cc1 (configuration not stated) |  |  | 4.11 µM [rising, partial curve]
C=C(C)CC(c1ccccc1)N(C(C)=O)c1ccco1 (configuration not stated) | 2.81 |  | 0.411 µM [rising, partial curve]
CCOc1ccc(/C=N/N2C(=O)C(CC(=O)Nc3ccc(F)cc3F)SC2=NC)cc1OC (configuration not stated) | -2.38 |  | 1.64 µM [rising, partial curve, poor fit]
O=C(Nc1cccc(C(=O)N2CCN(c3ccc(F)cc3)CC2)c1)c1ccccc1 | 14.5 |  | 1.46 µM [falling, partial curve]
COc1ccc(C)cc1NC(=O)CSc1nnc(-c2cc3cccc(OC)c3o2)n1N | -12.4 |  | 29.1 µM [falling, single point]
CN1C(C(=O)Nc2cccc(O)c2)=CC(c2cccs2)=NS1(=O)=O | 11 | 0.0146 µM [rising, full curve, poor fit] | 6.51 µM [rising, single point]
